Here are results for 20 compounds from the supplement of paper PMC7830784.

Counter-ions that a name gives are not always drawn. This is one part of the list. This data set is noisy: repeats of one test often differ as much as different tests do.

This assay concerns Brugia pahangi adult female. Description: motility inhibition on day 3 relative to DMSO vehicle; higher = more active. As to conditions: 10 µM; 3 days.
Take `C[C@]12CCC(=O)C=C1CC[C@@H]1[C@@H]2[C@@H](O)C[C@@]2(C)[C@H]1CC[C@]2(O)C(=O)COP(=O)(O)O` [hydrocortisone sodium phosphate]: the “motility inhibition on day 3” value came to 38%.

Consider `Cn1nnc2c(C(N)=O)ncn2c1=O` [temozolomide], for which the “motility inhibition on day 3” value turned out to be 3.92%.

In the case of `CC(C)(C)CC(C)(C)c1ccc(OCCOCC[N+](C)(C)Cc2ccccc2)cc1` [benzethonium chloride], the “motility inhibition on day 3” value was 90.5%.

For `CCCCOc1ccc(C(=O)CCN2CCCCC2)cc1` [dyclonine hydrochloride], the “motility inhibition on day 3” value came out at 7.54%.

On to `Nc1nc(N)c2nc(-c3ccccc3)c(N)nc2n1` [Triamterene], for which the “motility inhibition on day 3” value worked out at 17.1%.

Turning to `C=C1CC[C@H](O)C/C1=C/C=C1\CCC[C@]2(C)[C@@H]([C@H](C)/C=C/[C@H](C)C(C)C)CC[C@@H]12` [ergocalciferol], the “motility inhibition on day 3” value is 15.3%.

For the compound `C=CC[N+]1([C@H]2C[C@H]3[C@@H]4CC[C@H]5C[C@H](O)[C@@H](N6CCOCC6)C[C@]5(C)[C@H]4CC[C@]3(C)[C@H]2OC(C)=O)CCCC1` [Rocuronium bromide], the “motility inhibition on day 3” value was below 0%.

For the compound `CC(C)(C)NC(=O)[C@H]1CC[C@H]2[C@@H]3CC[C@H]4NC(=O)C=C[C@]4(C)[C@H]3CC[C@]12C` [finasteride], the “motility inhibition on day 3” value was below 0%.

Regarding `C[N+](C)(C)C[C@H](O)CC(=O)[O-]` [levocarnitine], the “motility inhibition on day 3” value is below 0%.

Take `CC(CN(C)C)CN1c2ccccc2CCc2ccccc21` (stereo not given) [trimipramine maleate]: the “motility inhibition on day 3” value amounted to 19%.

`CC(C)NCC(O)COc1cccc2[nH]ccc12` (stereo not given) [Pindolol]: the “motility inhibition on day 3” value worked out at 28.5%.

As to `OC(CCN1CCCC1)(c1ccccc1)C1CCCCC1` (stereo not given) [procyclidine hydrochloride], the “motility inhibition on day 3” value is 1.29%.

For `O=C(Nc1ccc([N+](=O)[O-])cc1Cl)c1cc(Cl)ccc1O` [niclosamide], the “motility inhibition on day 3” value was 97.2%.

With `CCOc1ccc(Cc2nccc3cc(OCC)c(OCC)cc23)cc1OCC` [ethaverine hydrochloride], the “motility inhibition on day 3” value is 12.8%.

As to `Nc1ccc(S(=O)(=O)O)cc1.Nc1ccc(S(=O)(=O)O)cc1.[Zn]` [sulfanilate zinc], the “motility inhibition on day 3” value is 24.5%.

Take `C#C[C@]1(O)CC[C@H]2[C@@H]3CCC4=Cc5oncc5C[C@]4(C)[C@H]3CC[C@@]21C` [danazol]: the “motility inhibition on day 3” value is 16.3%.

In the case of `CN1C(C(=O)Nc2ccccn2)=C(O)c2sc(Cl)cc2S1(=O)=O` [lornoxicam], the “motility inhibition on day 3” value worked out at 6.25%.

With `CC12CC3CC(C)(C1)CC(N)(C3)C2` [Memantine hydrochloride], the “motility inhibition on day 3” value was 12.9%.

Take `CCC[C@@H]1C[C@@H](C(=O)N[C@@H]([C@H]2O[C@H](SC)[C@H](O)[C@@H](O)[C@H]2O)[C@@H](C)O)N(C)C1` [lincomycin hydrochloride]: the “motility inhibition on day 3” value is 64.8%.

In the case of `CO[C@H]1C[C@@H]2CC[C@@H](C)[C@@](O)(O2)C(=O)C(=O)N2CCCC[C@H]2C(=O)O[C@H]([C@H](C)C[C@@H]2CC[C@@H](OC(=O)C(C)(CO)CO)[C@H](OC)C2)CC(=O)[C@H](C)/C=C(\C)[C@@H](O)[C@@H](OC)C(=O)[C@H](C)C[C@H](C)/C=C/C=C/C=C/1C` [Temsirolimus], the “motility inhibition on day 3” value was determined as 15.5%.
